This is one part of the list.
How the values were obtained:
Test in all cases: log2 fold change, soluble protein after heating vs DMSO (PISA); higher = thermal stabilisation; K562 cells, 10 uM, 30 min; active = over 0.2 and 3.5 SD of the protein, either way, in both replicates (recomputed)
erlotinib = compound: C#Cc1cccc(Nc2ncnc3cc(OCCOC)c(OCCOC)cc23)c1 [erlotinib]
Procedure, shortened: (§1)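 Quantification of soluble protein used TMTpro 16plex LC-MS/MS, with channel sums equalised. Samples were the supernatant after 21,000xg for 90 min of pooled aliquots from K562 cells (2×10^6 cells/mL) treated with 10 μM compound for 30 min, heated for 3 min over 48°C-58°C, and extracted in PBS with 0.5% NP-40 at 4°C. Values, from duplicates, describe thermal stability against control samples on a log2 fold-change scale.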

Amino acid sequences for entries named in this document (tags omitted). A change or cut given only in a name is not applied to a line headed by its entry.
UniProt Q1KMD3: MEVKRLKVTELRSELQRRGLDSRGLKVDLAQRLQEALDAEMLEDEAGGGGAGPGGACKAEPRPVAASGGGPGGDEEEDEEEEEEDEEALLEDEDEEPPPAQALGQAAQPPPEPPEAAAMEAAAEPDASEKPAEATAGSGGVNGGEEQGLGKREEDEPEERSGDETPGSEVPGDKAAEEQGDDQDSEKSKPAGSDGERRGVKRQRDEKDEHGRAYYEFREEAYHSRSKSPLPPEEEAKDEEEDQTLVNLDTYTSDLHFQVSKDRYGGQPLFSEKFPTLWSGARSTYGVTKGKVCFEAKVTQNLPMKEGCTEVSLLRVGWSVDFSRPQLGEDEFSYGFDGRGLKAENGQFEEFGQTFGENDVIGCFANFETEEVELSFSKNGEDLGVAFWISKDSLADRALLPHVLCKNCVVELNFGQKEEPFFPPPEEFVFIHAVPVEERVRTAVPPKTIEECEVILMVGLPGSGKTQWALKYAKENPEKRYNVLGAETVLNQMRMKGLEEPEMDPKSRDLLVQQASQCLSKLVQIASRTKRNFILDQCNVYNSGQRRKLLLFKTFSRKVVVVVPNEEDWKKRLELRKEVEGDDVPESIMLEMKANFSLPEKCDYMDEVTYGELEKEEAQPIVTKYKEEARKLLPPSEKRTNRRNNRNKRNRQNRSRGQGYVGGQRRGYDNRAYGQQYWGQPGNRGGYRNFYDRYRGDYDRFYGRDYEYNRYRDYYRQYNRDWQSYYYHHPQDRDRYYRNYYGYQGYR
UniProt Q14773: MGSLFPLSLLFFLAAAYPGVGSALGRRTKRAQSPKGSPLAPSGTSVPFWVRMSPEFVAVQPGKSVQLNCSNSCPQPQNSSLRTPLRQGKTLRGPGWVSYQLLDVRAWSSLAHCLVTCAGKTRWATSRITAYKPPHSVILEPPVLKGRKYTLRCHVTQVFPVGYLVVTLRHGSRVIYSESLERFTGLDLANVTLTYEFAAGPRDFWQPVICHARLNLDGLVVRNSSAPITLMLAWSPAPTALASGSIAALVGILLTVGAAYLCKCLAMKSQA
UniProt P49773: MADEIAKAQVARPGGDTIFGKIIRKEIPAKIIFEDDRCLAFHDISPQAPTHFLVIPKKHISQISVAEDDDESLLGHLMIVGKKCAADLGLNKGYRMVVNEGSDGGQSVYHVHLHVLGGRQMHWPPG
UniProt O14964, whole entry, looked up: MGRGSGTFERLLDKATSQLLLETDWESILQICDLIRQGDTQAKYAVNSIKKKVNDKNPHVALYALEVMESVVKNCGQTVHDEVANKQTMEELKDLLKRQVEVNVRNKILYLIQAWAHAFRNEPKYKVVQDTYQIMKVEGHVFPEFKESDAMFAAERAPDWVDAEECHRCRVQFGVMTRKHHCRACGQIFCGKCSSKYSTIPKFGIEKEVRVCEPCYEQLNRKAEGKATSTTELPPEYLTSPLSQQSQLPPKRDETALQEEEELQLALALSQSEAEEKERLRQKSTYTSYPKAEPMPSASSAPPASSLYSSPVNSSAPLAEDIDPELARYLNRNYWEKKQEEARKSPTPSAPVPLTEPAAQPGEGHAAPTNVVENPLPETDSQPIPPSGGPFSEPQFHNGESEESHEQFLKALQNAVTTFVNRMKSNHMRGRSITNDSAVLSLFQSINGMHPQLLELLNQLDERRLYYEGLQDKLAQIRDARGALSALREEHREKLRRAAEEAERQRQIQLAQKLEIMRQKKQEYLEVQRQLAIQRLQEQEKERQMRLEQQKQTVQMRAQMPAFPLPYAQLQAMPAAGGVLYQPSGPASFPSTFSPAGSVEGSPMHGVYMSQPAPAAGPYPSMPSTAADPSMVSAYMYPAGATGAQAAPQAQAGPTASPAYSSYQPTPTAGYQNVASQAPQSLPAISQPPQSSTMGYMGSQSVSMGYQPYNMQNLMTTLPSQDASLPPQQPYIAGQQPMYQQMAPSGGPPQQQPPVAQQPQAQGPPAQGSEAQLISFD
UniProt Q8TCT9: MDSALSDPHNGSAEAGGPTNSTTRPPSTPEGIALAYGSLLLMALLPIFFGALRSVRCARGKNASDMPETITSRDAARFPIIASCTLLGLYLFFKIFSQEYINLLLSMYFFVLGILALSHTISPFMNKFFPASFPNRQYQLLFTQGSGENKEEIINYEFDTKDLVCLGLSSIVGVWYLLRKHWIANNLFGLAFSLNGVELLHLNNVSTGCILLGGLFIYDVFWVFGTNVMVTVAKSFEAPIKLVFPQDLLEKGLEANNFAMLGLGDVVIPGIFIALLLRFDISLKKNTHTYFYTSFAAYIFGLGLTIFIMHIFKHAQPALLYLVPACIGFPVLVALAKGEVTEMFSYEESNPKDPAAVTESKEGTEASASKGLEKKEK
UniProt P26583: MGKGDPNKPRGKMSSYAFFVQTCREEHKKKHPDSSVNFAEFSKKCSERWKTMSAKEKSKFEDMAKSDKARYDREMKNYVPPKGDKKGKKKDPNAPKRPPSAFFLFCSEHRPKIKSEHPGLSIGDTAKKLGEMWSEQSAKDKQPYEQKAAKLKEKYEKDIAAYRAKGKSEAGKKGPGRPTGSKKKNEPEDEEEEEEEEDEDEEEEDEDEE
UniProt P17482: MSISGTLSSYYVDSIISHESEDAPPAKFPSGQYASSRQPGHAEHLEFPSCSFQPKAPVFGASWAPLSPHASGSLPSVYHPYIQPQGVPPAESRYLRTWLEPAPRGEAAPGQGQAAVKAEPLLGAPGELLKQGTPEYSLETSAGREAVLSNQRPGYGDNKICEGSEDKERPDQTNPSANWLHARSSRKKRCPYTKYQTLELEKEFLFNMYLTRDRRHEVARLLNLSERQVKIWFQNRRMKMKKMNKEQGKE
UniProt Q8TB92: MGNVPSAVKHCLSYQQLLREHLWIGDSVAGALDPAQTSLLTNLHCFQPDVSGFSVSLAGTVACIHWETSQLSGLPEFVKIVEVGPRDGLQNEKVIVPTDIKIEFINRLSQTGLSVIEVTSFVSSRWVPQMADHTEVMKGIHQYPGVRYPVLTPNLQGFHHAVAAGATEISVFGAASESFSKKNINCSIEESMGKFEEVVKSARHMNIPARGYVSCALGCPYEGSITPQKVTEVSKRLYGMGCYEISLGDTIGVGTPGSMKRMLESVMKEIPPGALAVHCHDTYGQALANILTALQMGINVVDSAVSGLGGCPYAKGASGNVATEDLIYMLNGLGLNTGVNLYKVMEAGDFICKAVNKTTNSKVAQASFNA
UniProt P05362: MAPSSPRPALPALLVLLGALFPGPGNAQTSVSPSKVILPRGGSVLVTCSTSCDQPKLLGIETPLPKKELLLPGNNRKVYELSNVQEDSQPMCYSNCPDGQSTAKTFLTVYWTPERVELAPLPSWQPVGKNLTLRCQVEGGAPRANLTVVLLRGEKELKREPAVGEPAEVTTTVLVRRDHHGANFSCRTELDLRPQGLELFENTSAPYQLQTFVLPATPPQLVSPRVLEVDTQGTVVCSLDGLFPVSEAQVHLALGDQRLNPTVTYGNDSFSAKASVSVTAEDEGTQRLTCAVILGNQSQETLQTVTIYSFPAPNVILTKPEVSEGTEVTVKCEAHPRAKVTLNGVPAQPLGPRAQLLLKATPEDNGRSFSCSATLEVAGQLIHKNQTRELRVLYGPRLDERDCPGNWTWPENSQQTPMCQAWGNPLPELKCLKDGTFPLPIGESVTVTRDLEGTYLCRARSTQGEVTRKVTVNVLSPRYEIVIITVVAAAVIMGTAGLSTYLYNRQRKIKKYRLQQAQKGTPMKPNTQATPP
UniProt Q05084: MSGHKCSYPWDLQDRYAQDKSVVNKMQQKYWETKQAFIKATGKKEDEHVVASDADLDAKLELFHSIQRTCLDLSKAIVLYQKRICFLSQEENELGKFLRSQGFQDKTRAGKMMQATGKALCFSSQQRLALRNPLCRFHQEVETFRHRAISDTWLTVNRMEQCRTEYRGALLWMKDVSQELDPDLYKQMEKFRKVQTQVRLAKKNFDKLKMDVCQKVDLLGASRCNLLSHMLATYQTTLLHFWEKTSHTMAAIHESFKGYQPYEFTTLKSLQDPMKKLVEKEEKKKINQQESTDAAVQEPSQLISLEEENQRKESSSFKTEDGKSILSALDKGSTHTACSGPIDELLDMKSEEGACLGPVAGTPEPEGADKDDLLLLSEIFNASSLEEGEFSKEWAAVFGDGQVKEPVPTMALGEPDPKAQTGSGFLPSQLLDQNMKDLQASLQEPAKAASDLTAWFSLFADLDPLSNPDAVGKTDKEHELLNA
UniProt P09429: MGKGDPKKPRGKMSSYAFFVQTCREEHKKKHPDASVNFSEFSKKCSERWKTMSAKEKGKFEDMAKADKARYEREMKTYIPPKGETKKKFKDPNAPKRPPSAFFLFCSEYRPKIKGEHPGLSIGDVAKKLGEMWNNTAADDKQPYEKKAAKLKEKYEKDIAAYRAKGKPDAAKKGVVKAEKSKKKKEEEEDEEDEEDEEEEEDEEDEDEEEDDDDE
UniProt Q9NX55: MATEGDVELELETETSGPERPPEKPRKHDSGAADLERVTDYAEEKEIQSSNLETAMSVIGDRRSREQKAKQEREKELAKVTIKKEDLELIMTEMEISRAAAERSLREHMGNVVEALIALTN
UniProt Q8WVV9: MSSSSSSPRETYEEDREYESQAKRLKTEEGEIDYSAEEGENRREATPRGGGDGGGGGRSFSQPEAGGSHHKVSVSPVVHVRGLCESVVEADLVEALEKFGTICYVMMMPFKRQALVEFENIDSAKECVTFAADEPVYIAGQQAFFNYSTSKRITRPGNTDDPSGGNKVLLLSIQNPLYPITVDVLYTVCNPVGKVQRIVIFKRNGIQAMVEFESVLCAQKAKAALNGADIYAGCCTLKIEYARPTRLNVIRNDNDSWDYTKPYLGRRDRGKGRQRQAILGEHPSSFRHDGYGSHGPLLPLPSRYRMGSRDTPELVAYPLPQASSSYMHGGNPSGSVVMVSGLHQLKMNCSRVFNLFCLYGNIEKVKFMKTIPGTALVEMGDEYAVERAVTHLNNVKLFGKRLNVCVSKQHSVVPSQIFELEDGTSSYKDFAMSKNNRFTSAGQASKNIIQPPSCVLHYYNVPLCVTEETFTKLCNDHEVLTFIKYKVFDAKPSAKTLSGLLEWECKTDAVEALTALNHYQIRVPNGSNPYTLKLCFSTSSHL
UniProt P09651: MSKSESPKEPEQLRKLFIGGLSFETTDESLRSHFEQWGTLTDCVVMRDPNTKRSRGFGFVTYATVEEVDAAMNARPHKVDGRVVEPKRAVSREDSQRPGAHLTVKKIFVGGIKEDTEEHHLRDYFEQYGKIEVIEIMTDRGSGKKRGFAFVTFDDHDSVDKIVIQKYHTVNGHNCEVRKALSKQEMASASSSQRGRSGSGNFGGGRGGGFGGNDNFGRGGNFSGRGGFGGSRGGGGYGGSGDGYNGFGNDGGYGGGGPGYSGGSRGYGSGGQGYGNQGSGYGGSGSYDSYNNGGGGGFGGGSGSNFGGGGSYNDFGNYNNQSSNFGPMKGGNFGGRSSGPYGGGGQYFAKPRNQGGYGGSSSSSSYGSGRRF
UniProt Q9BX68: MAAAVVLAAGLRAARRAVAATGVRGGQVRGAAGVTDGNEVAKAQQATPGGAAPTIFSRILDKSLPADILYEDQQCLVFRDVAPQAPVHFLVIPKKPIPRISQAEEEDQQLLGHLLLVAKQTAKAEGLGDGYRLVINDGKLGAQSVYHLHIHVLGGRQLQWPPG
UniProt P14735, whole entry, looked up: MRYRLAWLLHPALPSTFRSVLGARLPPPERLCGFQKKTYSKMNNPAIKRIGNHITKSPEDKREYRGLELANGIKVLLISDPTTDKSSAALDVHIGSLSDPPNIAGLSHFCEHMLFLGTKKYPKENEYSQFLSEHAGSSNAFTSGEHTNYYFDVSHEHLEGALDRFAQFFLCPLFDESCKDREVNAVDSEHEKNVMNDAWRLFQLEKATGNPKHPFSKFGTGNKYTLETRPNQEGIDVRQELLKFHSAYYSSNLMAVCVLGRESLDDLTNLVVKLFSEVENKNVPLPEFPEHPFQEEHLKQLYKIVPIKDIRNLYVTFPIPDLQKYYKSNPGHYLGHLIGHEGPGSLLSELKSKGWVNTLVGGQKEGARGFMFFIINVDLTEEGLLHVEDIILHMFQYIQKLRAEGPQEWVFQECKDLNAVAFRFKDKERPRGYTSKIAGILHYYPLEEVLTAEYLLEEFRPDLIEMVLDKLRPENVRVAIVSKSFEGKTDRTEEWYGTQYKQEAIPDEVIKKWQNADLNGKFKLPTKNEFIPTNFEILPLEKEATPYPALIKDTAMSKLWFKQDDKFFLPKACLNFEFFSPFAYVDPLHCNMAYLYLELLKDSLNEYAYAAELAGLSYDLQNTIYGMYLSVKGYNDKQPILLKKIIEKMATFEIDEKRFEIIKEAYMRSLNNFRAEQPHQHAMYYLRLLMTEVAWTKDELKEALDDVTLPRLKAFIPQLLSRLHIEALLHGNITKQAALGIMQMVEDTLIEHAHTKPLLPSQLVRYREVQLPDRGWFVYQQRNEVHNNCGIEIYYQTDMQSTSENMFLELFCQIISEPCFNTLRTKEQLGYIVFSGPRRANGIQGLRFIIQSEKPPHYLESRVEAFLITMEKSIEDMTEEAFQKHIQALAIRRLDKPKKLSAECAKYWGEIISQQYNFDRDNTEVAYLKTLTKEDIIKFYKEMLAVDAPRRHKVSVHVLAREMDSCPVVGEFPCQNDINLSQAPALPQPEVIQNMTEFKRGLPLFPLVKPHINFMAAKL

[1] = compound: C/C(=N\NC(=O)C1=CC(=CC=C1)S(=O)(=O)N2CCOCC2)/C3=C(C=CC(=C3)Cl)O
Procedure, shortened: as §1

[2] = compound: C1=CC(=C(C=C1Cl)C2=NC3=NC=CN=C3C(=N2)NC4=CC=NC=C4)F
Procedure, shortened: as §1

[3] = compound: C1=CC(=CC=C1C2=NC3=C(N2)C=C(C=C3)C(=O)N)OC4=CC=C(C=C4)Cl
Procedure, shortened: as §1

[4] = compound: C1=CC2=C(C=CC(=C2)/C=C\3/C(=O)NC(=NCC4=CC=CS4)S3)N=C1
Procedure, shortened: as §1

[5] = compound: C1=CC2=NC=CN=C2C=C1/C=C/3\C(=O)NC(=O)S3
Procedure, shortened: as §1

[6] = compound: C1=CC=C(C=C1)C2=NC(=C(N2)C3=CC=NC=C3)C4=CC(=C(C=C4)Cl)O
Procedure, shortened: as §1

[7] = compound: C1=CC=C2C(=C1)C3=NNC4=CC=CC(=C43)C2=O
Procedure, shortened: as §1

[8] = compound: C1CCN(C1)C(=O)NC2=CC=CC(=C2)NC3=NC=C(C(=N3)NCCC4=CN=CN4)Br
Procedure, shortened: as §1

[9] = compound: C1CN(CCC1(CC2=CC=C(C=C2)Cl)N)C3=NC=NC4=C3C=CN4
Procedure, shortened: as §1

Measured: log2 fold change

HNRNPUL2 (UniProt Q1KMD3)
inactive: erlotinib -0.054 | [1] -0.08 | [2] -0.138 | [3] -0.015 | [4] -0.057 | [5] 0.012 | [6] -0.056 | [7] -0.014 | [8] 0.011 | [9] -0.102

HMCN1 (UniProt Q96RW7)
inactive: erlotinib -0.336 | [1] 0.074 | [2] 0.225 | [3] 0.152 | [4] 0.177 | [5] 0 | [6] -0.016 | [7] 0 | [8] 0.19 | [9] 0.299

HIP1R (UniProt O75146)
inactive: erlotinib 0.017 | [1] 0.034 | [2] 0.024 | [3] 0.005 | [4] 0.054 | [5] 0.013 | [6] 0.018 | [7] 0.033 | [8] -0.004 | [9] -0.005

HNRNPU (UniProt Q00839)
inactive: erlotinib -0.016 | [1] -0.005 | [2] -0.163 | [3] -0.013 | [4] -0.038 | [5] 0.021 | [6] -0.019 | [7] -0.071 | [8] 0.009 | [9] -0.238

HMGN4 (UniProt O00479)
inactive: erlotinib -0.159 | [1] 0.178 | [2] 0.421 | [3] 0.11 | [4] -0.35 | [5] -0.066 | [6] 0.252 | [7] 0.086 | [8] 0.042 | [9] -0.083

Fetched one by one from the list above, 2 records:
HNRNPUL2 (UniProt Q1KMD3)
inactive: erlotinib -0.054 | [1] -0.08 | [2] -0.138 | [3] -0.015 | [4] -0.057 | [5] 0.012 | [6] -0.056 | [7] -0.014 | [8] 0.011 | [9] -0.102

HMGN4 (UniProt O00479)
inactive: erlotinib -0.159 | [1] 0.178 | [2] 0.421 | [3] 0.11 | [4] -0.35 | [5] -0.066 | [6] 0.252 | [7] 0.086 | [8] 0.042 | [9] -0.083

The list goes on:

ICAM4 (UniProt Q14773)
inactive: erlotinib 0.028 | [1] -0.025 | [2] -0.053 | [3] -0.013 | [4] 0.035 | [5] 0.07 | [6] -0.057 | [7] -0.031 | [8] -0.118 | [9] 0.064

HINT1 (UniProt P49773)
inactive: erlotinib 0.049 | [1] 0.024 | [2] 0.186 | [3] -0.055 | [4] 0.02 | [5] 0.07 | [6] 0.083 | [7] 0.064 | [8] 0.008 | [9] -0.033

HGS (UniProt O14964)
inactive: erlotinib -0.031 | [1] 0.041 | [2] 0.046 | [3] -0.014 | [4] 0.014 | [5] 0.02 | [6] 0.002 | [7] -0.009 | [8] 0.01 | [9] -0.015

ICMT (UniProt O60725)
inactive: erlotinib 0.059 | [1] -0.081 | [2] 0.015 | [3] -0.001 | [4] 0.214 | [5] -0.064 | [6] 0.122 | [7] -0.038 | [8] -0.206 | [9] -0.032

HM13 isoform 2 (UniProt Q8TCT9)
inactive: erlotinib 0.014 | [1] 0.017 | [2] 0.034 | [3] -0.016 | [4] 0.004 | [5] 0.033 | [6] -0.022 | [7] -0.03 | [8] 0.055 | [9] 0.056

HSP90AB3P (UniProt Q58FF7)
inactive: erlotinib -0.139 | [1] -0.096 | [3] -0.096 | [4] 0.116 | [5] 0.037 | [6] -0.062 | [7] -0.213

HYOU1, A0A494C039
inactive: erlotinib -0.036 | [1] -0.156 | [2] -0.023 | [3] -0.01 | [4] 0.135 | [5] 0.048 | [7] 0.164 | [8] 0.061 | [9] 0.083

HTD2 (UniProt P86397)
inactive: erlotinib 0.008 | [1] 0.002 | [2] -0.029 | [3] -0.034 | [4] 0.042 | [5] -0.028 | [7] 0.237

HMGB2 (UniProt P26583)
inactive: erlotinib -0.014 | [1] 0.016 | [2] 0.068 | [3] 0.023 | [4] -0.045 | [5] -0.015 | [6] 0.043 | [7] 0.054 | [8] -0.024 | [9] 0.021

HOXB9 (UniProt P17482)
inactive: erlotinib 0.181 | [1] -0.163 | [2] -0.002 | [3] -0.039 | [4] 0.128 | [5] 0.013 | [6] -0.01 | [7] 0.021 | [8] 0.036 | [9] -0.035

HMGCLL1 (UniProt Q8TB92)
inactive: erlotinib 0.029 | [1] -0.124 | [2] 0.135 | [3] 0.003 | [4] 0.016 | [5] 0.045 | [7] 0.034 | [8] 0.015 | [9] 0.089

HNRNPA3 (UniProt P51991)
inactive: erlotinib -0.179 | [1] -0.103 | [2] -0.583 | [3] 0.03 | [4] -0.073 | [5] 0.046 | [6] -0.085 | [7] -0.009 | [8] -0.027 | [9] -0.085

HOMER1 (UniProt Q86YM7)
inactive: erlotinib -0.103 | [1] -0.015 | [2] -0.05 | [3] 0.016 | [4] 0.021 | [5] 0.074 | [6] -0.057 | [7] -0.015 | [8] 0.062 | [9] -0.011

ICAM1 (UniProt P05362)
inactive: erlotinib 0.008 | [1] 0.008 | [2] 0.015 | [3] 0.018 | [4] -0.005 | [5] -0.033 | [6] -0.01 | [7] -0.004 | [8] -0.047 | [9] 0.073

HNRNPK isoform 2 (UniProt P61978)
inactive: erlotinib 0.042 | [1] 0.019 | [2] -0.003 | [3] 0 | [4] 0.058 | [5] -0.008 | [6] -0.013 | [7] -0.024 | [8] 0.011 | [9] 0.02

ICA1 isoform 2 (UniProt Q05084)
inactive: erlotinib 0.064 | [1] 0.017 | [2] -0.013 | [3] 0.031 | [4] -0.017 | [6] -0.086 | [7] 0.02

HMGB1 (UniProt P09429)
inactive: erlotinib 0.006 | [1] -0.044 | [2] 0.074 | [3] 0.054 | [4] -0.209 | [5] -0.011 | [6] 0.052 | [7] 0.116 | [8] -0.024 | [9] -0.007

HYPK (UniProt Q9NX55)
inactive: erlotinib -0.029 | [1] 0.013 | [2] 0.049 | [3] -0.02 | [4] 0.056 | [5] 0.001 | [6] -0.014 | [7] -0.006 | [8] 0.011 | [9] -0.005

ICE2 (UniProt Q659A1)
inactive: erlotinib 0.154 | [1] 0.069 | [2] -0.146 | [3] 0.044 | [4] 0.079 | [5] 0.017 | [7] 0.007

HNRNPLL (UniProt Q8WVV9)
inactive: erlotinib 0.081 | [1] 0.11 | [2] -0.034 | [3] -0.001 | [4] 0.057 | [5] -0.034 | [6] 0.064 | [7] 0 | [8] -0.131 | [9] 0.008

HPS1 (UniProt Q92902)
inactive: erlotinib -0.06 | [1] 0.006 | [3] -0.047 | [4] 0.226 | [5] 0.135 | [6] 0.026 | [7] 0.142 | [8] 0.1 | [9] -0.012

HNRNPA1 (UniProt P09651)
inactive: erlotinib -0.161 | [1] -0.184 | [2] -0.435 | [3] 0.038 | [4] -0.063 | [5] 0.033 | [6] -0.097 | [7] 0.003 | [8] -0.011 | [9] -0.138

HINT2 (UniProt Q9BX68)
inactive: erlotinib -0.004 | [1] 0.034 | [3] 0.009 | [4] 0.077 | [5] 0.104 | [6] 0.088 | [7] -0.048 | [8] -0.078 | [9] -0.168

IDE (UniProt P14735)
inactive: erlotinib -0.021 | [1] 0.055 | [2] 0.021 | [3] 0.023 | [4] 0.046 | [5] 0.003 | [6] 0.036 | [7] -0.004 | [8] -0.027 | [9] 0.04

HMBS (UniProt P08397)
inactive: erlotinib 0 | [1] 0.011 | [2] 0.031 | [3] 0.004 | [4] -0.034 | [5] -0.001 | [6] 0.035 | [7] -0.007 | [8] -0.015 | [9] 0.062

HSPA8 (UniProt E9PN89)
inactive: erlotinib 0.051 | [1] -0.193 | [2] -0.191 | [3] -0.061 | [4] 0.358 | [5] 0.06 | [7] -0.133 | [8] 0.267 | [9] -0.027
